3 compounds from patent US20210369618A1, “IBUPROFEN-CONTAINING ORAL PHARMACEUTICAL FORMULATION” (SSP CO., LTD., priority 2018, published 2021) can be followed below.

A short description of series [1]: Sensory evaluation of the unpleasant taste of ibuprofen; amount equivalent to 400 mg ibuprofen held in the mouth. The settings on record: relative to reference example 4. Further details: key: AA: No unpleasant taste was detected.; An unpleasant taste was just about detected, but it was not so bothersome.; B: There was an unpleasant taste and it was very bothersome.; C: It was unacceptably unpleasant. On the procedure:
Granules of example 17 were placed in the mouth, held in the mouth for 3 minutes without swallowing, and subjected to sensory evaluation, over time, of the unpleasant taste of ibuprofen (irritation and bitterness). For the reference example 4 sample (ibuprofen passed completely through a 30 mesh) shown in Table 7, sensory evaluation of an amount equivalent to 400 mg ibuprofen was performed in accordance with the operations as described above, using the following evaluation criteria, and the evaluations for example 17 were subjected to relative evaluation based on the evaluation result for the reference example 4 sample.

A short description of series [2]: Sensory evaluation of the unpleasant taste of ibuprofen (irritation and bitterness); sample equivalent to 200 mg ibuprofen held in the mouth for 3 minutes. Further details: key to unpleasant taste of ibuprofen (irritation and bitterness), sensory evaluation: AA: No unpleasant taste was detected.; An unpleasant taste was just about detected, but it was not so bothersome.; B: There was an unpleasant taste and it was very bothersome.; C: It was unacceptably unpleasant. The settings on record: for unpleasant taste of ibuprofen (irritation and bitterness), sensory evaluation: equivalent to 200 mg ibuprofen, relative to reference example 1. As for the experimental part:
Immediately after the mixing, a sample equivalent to 200 mg ibuprofen was placed in the mouth, held in the mouth for 3 minutes without swallowing, and subjected to sensory evaluation, over time, of the unpleasant taste of ibuprofen (irritation and bitterness). For the sample used in reference example 1 (ibuprofen passed completely through a 30 mesh) shown in Table 1, sensory evaluation was performed in accordance with the operations described above using the evaluation criteria below, and the evaluations of example 1 and comparative example 1 were subjected to relative evaluation based on the evaluation result for the reference example 1 sample.
Said samples for examples 2-7 and comparative examples 2-4 were subjected to sensory evaluation of the unpleasant taste of ibuprofen (irritation and bitterness) in accordance with the operations and evaluation criteria used in test example 1 (relative evaluation based on the evaluation result for the reference example 1 sample).
Granules equivalent to 200 mg ibuprofen were subjected to sensory evaluation of the unpleasant taste of ibuprofen (irritation and bitterness) in accordance with the operations and evaluation criteria used in test example 1 (relative evaluation based on the evaluation result for the reference example 1 sample).
Sensory evaluation the same as in test example 3 was conducted with the exception that the composition of the granules was modified to the compositions shown in Table 4 and that the granules were evaluated only after having been held in the mouth for 30 seconds and after having been held in the mouth for 1 minute.

As to `CC(C)Cc1ccc(C(C)C(=O)O)cc1` (centres unmarked) [compound 4, 2-(4-isobutylphenyl)propionic acid], the “unpleasant taste of ibuprofen (irritation and bitterness), sensory evaluation” value (shortened to “unpleasant taste of ibuprofen”) in series [1] (held in the mouth 10 seconds) was “AA”; in series [1] (held in the mouth 20 seconds) it was “A”; in series [1] (held in the mouth 30 seconds), “C”; in series [1] (held in the mouth 45 seconds), “C”; in series [1] (held in the mouth 1 minute), “C”; in series [1] (held in the mouth 2 minutes), “C”. Further, in series [1] (held in the mouth 3 minutes), the “unpleasant taste of ibuprofen” value is listed as “C”.
With `CC(C)Cc1ccc(C(C)C(=O)O)cc1` (centres unmarked) [compound 2, 2-(4-isobutylphenyl)propionic acid], the “unpleasant taste after drying treatment compared with the substance not subjected to the drying treatment” value in series [2] (drying treatment 65° C. for 15 hours, Tables 1 and 2 compared) was “the unpleasant taste was no lower”. Also, the “unpleasant taste of ibuprofen” value is given as “AA” in series [2] (held in the mouth 10 seconds); “A” in series [2] (held in the mouth 20 seconds); “C” in series [2] (held in the mouth 30 seconds); “C” in series [2] (held in the mouth 45 seconds); “C” in series [2] (held in the mouth 1 minute); “C” in series [2] (held in the mouth 2 minutes). For the same compound, the “unpleasant taste of ibuprofen” value in series [2] (held in the mouth 3 minutes) is reported as “C”.
On to `CC(C)Cc1ccc(C(C)C(=O)O)cc1` (centres unmarked) [compound 1, 2-(4-isobutylphenyl)propionic acid], for which the “unpleasant taste, in words” value in series [2] (after having been held in the mouth for 30 seconds) is on record as “exhibited a distinctly unpleasant taste”. The “unpleasant taste of ibuprofen” value in series [2] (held in the mouth 10 seconds) is “AA”; in series [2] (held in the mouth 20 seconds), “A”; in series [2] (held in the mouth 30 seconds) it was “B”; in series [2] (held in the mouth 45 seconds), “C”; in series [2] (held in the mouth 1 minute), “C”; in series [2] (held in the mouth 2 minutes), “C”. Also, the “unpleasant taste of ibuprofen” value in series [2] (held in the mouth 3 minutes) is reported as “C”.
